Source: patent publication US20150139982A1
No constants are given. Whether binding was seen depends on the method and setting. Some results given as binding are weak or reduced against the parent protein; the word gives no strength. Tags and fused reporters may be left off the sequences shown.

T1: Fc-Siglec-15 fusion protein (Homo sapiens (Human)) (UniProt Q6ZMC9)
T1 sequence: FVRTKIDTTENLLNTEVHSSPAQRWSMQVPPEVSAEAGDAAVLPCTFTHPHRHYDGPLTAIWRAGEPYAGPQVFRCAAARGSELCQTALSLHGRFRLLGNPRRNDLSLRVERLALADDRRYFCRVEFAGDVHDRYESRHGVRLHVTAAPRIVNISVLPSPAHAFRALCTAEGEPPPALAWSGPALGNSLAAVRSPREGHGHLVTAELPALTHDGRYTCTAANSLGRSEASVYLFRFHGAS


What was measured:
[1] = target: T1, Fc-Siglec-15 fusion protein (Homo sapiens (Human)); test: SPR, Fc-Siglec-15 immobilized on the chip, antibody (cell supernatant or purified) flowed over it
[2] = target: T1, Fc-Siglec-15 fusion protein (Homo sapiens (Human)); test: SPR, Fc-Siglec-15 immobilized, antibody injected
[3] = target: T1, Fc-Siglec-15 fusion protein (Homo sapiens (Human)); test: SPR, Fc-Siglec-15 immobilized on the chip, purified antibody flowed over it
[4] = target: T1, Fc-Siglec-15 fusion protein (Homo sapiens (Human)); test: SPR, Fc-Siglec-15 immobilized on the chip, antibody in cell supernatant flowed over it

binding [1] | binding [2] | binding [3] | binding [4] | Binder
 | binds | binds |  | mouse 25D8 monoclonal antibody (antibody, V domains shown) VH: QVQVQQPGAELVKPGASVKLSCKASGYTFTSYWMHWVKQRPGQGLEWIGLINPSNARTNYNEKFNTKATLTVDKSSSTAYMQLSSLTSEDSAVYYCARGGDGDYFDYWGQGTTLTVSS VL: DIVMTQAAFSNPVTLGTSASISCRSSKSLLHSNGITYLYWYLQKPGQSPQLLIYQMSNLASGVPDRFSSSGSGTDFTLRISRVEAEDVGVYYCAQNLELPYTFGGGTKLEIK
 | binds |  | binds | humanized 25E9 L1H1 IgG2 variant (antibody) light: DIVMTQSPLSLPVTPGEPASISCRSTKSLLHSNGNTYLYWYLQKPGQSPQLLIYRMSNLASGVPDRFSGSGSGTDFTLKISRVEAEDVGVYYCMQHLEYPFTFGGGTKVEIKRTVAAPSVFIFPPSDEQLKSGTASVVCLLNNFYPREAKVQWKVDNALQSGNSQESVTEQDSKDSTYSLSSTLTLSKADYEKHKVYACEVTHQGLSSPVTKSFNRGEC heavy: EIQLQQSGAEVKKPGSSVKVSCKASGYTFTDYDMHWVRQAPGQGLEWMGTIDPETGGTAYNQKFKGRVTITADKSTSTAYMELSSLRSEDTAVYYCTSFYYTYSNYDVGFAYWGQGTLVTVSSASTKGPSVFPLAPCSRSTSESTAALGCLVKDYFPEPVTVSWNSGALTSGVHTFPAVLQSSGLYSLSSVVTVPSSNFGTQTYTCNVDHKPSNTKVDKTVERKCCVECPPCPAPPVAGPSVFLFPPKPKDTLMISRTPEVTCVVVDVSHEDPEVQFNWYVDGVEVHNAKTKPREEQFNSTFRVVSVLTVVHQDWLNGKEYKCKVSNKGLPAPIEKTISKTKGQPREPQVYTLPPSREEMTKNQVSLTCLVKGFYPSDIAVEWESNGQPENNYKTTPPMLDSDGSFFLYSKLTVDKSRWQQGNVFSCSVMHEALHNHYTQKSLSLSPGK
 | binds | binds |  | mouse 25E9 monoclonal antibody (antibody, V domains shown) VH: EIQLQQSGVELVRPGASVTLSCKASGYTFTDYDMHWVKQTPVHGLEWIGTIDPETGGTAYNQKFKGKATLTADRSSTTAYMELSSLTSEDSAVYYCTSFYYTYSNYDVGFAYWGQGTLVTVSA VL: DIVMTQAAPSVPVTPGESVSISCRSTKSLLHSNGNTYLYWFLQRPGQSPQLLIYRMSNLASGVPDRFSGSGSGTAFTLRISRVEAEDVGVYYCMQHLEYPFTFGGGTKLEIK

More lines, now with the values behind:

Binder | binding [1] | binding [2] | binding [3] | binding [4]
chimeric 25D8 IgG2 (antibody, V domains shown) VH: QVQVQQPGAELVKPGASVKLSCKASGYTFTSYWMHWVKQRPGQGLEWIGLINPSNARTNYNEKFNTKATLTVDKSSSTAYMQLSSLTSEDSAVYYCARGGDGDYFDYWGQGTTLTVSS VL: DIVMTQAAFSNPVTLGTSASISCRSSKSLLHSNGITYLYWYLQKPGQSPQLLIYQMSNLASGVPDRFSSSGSGTDFTLRISRVEAEDVGVYYCAQNLELPYTFGGGTKLEIKR | binds | binds |  | 
humanized 25D8 IgG2 antibody (antibody, V domains shown) VH: QVQLQQSGAEVKKPGSSVKVSCKASGYTFTSYWMHWVRQAPGQGLEWMGLINPSNARTNYNEKFNTRVTITADKSTSTAYMELSSLRSEDTAVYYCARGGDGDYFDYWGQGTTVTVSS VL: DIVMTQTPLSLPVTPGEPASISCRSSKSLLHSNGITYLYWYLQKPGQSPQLLIYQMSNLASGVPDRFSGSGSGTDFTLKISRVEAEDVGVYYCAQNLELPYTFGGGTKVEIKR |  | binds |  | binds
chimeric 25E9 IgG2 (antibody, V domains shown) VH: EIQLQQSGVELVRPGASVTLSCKASGYTFTDYDMHWVKQTPVHGLEWIGTIDPETGGTAYNQKFKGKATLTADRSSTTAYMELSSLTSEDSAVYYCTSFYYTYSNYDVGFAYWGQGTLVTVSA VL: DIVMTQAAPSVPVTPGESVSISCRSTKSLLHSNGNTYLYWFLQRPGQSPQLLIYRMSNLASGVPDRFSGSGSGTAFTLRISRVEAEDVGVYYCMQHLEYPFTFGGGTKLEIKR | binds | binds |  | 
